Drawing on publication PMC3749959, this text covers binding for one molecule.

Chains of the proteins cited; added tags and fusions are not shown.
UniProt P19525: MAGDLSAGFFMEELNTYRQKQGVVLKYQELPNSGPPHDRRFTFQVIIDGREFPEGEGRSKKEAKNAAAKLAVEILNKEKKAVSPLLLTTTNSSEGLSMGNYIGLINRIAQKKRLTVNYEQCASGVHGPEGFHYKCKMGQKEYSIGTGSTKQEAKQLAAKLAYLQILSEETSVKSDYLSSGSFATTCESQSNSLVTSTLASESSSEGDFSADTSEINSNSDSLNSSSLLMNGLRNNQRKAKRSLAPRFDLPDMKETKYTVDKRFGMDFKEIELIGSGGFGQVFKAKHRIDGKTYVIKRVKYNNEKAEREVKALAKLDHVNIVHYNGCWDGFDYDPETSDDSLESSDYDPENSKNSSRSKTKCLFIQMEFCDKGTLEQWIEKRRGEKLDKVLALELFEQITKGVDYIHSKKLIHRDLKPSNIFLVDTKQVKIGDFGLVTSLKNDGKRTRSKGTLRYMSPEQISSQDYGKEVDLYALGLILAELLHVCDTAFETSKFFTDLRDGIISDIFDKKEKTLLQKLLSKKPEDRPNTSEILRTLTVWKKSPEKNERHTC

Assay [1] concerns the target FLAG-tagged wild-type (WT)-PKR (UniProt P19525). Description: co-IP; lysates of WT hmCD40-RAW 264.7 cells (transfected with FLAG-tagged WT-PKR or untransfected), incubated with or without CD154 for 30 min; in certain experiments control or TRAF2 siRNA beforehand; immunoprecipitation with anti-FLAG, anti-TRAF2 C20 or anti-TRAF6 D-10 antibody overnight at 4°C, protein G beads, immunoblot for TRAF2, TRAF6 or FLAG. In general terms: In western blotting, separated proteins are transferred to a membrane and probed.

For assay [2], the target named is T1, TRAF6 (mouse (endogenous in RAW 264.7)) (UniProt P70196).
T1 sequence: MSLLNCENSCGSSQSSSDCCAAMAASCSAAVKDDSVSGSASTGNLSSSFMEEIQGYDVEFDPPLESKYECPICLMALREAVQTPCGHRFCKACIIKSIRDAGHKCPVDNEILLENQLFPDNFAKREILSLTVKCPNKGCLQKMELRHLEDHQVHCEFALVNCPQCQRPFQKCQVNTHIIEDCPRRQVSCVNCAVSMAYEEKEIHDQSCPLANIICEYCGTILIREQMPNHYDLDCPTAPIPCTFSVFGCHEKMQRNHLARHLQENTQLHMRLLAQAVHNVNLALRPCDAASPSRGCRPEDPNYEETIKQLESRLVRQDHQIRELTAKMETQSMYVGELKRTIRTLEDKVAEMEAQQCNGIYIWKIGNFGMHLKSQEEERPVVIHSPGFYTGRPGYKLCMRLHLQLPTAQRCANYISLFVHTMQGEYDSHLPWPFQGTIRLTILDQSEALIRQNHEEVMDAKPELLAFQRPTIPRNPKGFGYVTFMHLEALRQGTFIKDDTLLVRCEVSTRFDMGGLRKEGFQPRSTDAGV
Described as above.

Results are given in words; binding and its absence hold for the method and conditions named. Binding seen in cells or lysates may run through a third protein. Some entries that bind do so weakly or less than the wild type.

B1: TRAF2 (protein, UniProt P39429 1-501)
chain: MAAASVTSPGSLELLQPGFSKTLLGTRLEAKYLCSACKNILRRPFQAQCGHRYCSFCLTSILSSGPQNCAACVYEGLYEEGISILESSSAFPDNAARREVESLPAVCPNDGCTWKGTLKEYESCHEGLCPFLLTECPACKGLVRLSEKEHHTEQECPKRSLSCQHCRAPCSHVDLEVHYEVCPKFPLTCDGCGKKKIPRETFQDHVRACSKCRVLCRFHTVGCSEMVETENLQDHELQRLREHLALLLSSFLEAQASPGTLNQVGPELLQRCQILEQKIATFENIVCVLNREVERVAVTAEACSRQHRLDQDKIEALSNKVQQLERSIGLKDLAMADLEQKVSELEVSTYDGVFIWKISDFTRKRQEAVAGRTPAIFSPAFYTSRYGYKMCLRVYLNGDGTGRGTHLSLFFVVMKGPNDALLQWPFNQKVTLMLLDHNNREHVIDAFRPDVTSSSFQRPVSDMNIASGCPLFCPVSKMEAKNSYVRDDAIFIKAIVDLTGL
For B1, the binding result in assay [1] and in assay [2] was “binds” throughout.
